{"source": "patent US20140056866A1", "about": "“USE OF BIOLOGICAL OR CHEMICAL CONTROL AGENTS FOR CONTROLLING INSECTS AND NEMATODES IN RESISTANT CROPS” (priority 2010, published 2014)", "test_system": "Z. Mays", "test": "Corn plant emergence after clothianidin seed treatment (Example 3)", "format": "in vivo, Zea Mays"}
{"compound": "CN/C(=N\\[N+](=O)[O-])NCc1cnc(Cl)s1", "note": "[clothianidin]", "values": [{"measurement": "Plant Emergence, Emerged", "setting": "Jul. 1, 2011, CTD 0.125 mg ai/seed", "value": 43, "unit": "%"}, {"measurement": "Plant Emergence, Emerged", "setting": "Jul. 1, 2011, CTD 0.25 mg ai/seed", "value": 43, "unit": "%"}, {"measurement": "Plant Emergence, Emerged", "setting": "Jul. 1, 2011, CTD 0.5 mg ai/seed", "value": 33, "unit": "%"}, {"measurement": "Plant Emergence, Emerged", "setting": "Jul. 7, 2011, CTD 0.125 mg ai/seed", "value": 43, "unit": "%"}, {"measurement": "Plant Emergence, Emerged", "setting": "Jul. 7, 2011, CTD 0.25 mg ai/seed", "value": 43, "unit": "%"}, {"measurement": "Plant Emergence, Emerged", "setting": "Jul. 7, 2011, CTD 0.5 mg ai/seed", "value": 33, "unit": "%"}, {"measurement": "Plant Emergence, Emerged", "setting": "Jun. 28, 2011, CTD 0.125 mg ai/seed", "value": 43, "unit": "%"}, {"measurement": "Plant Emergence, Emerged", "setting": "Jun. 28, 2011, CTD 0.25 mg ai/seed", "value": 40, "unit": "%"}, {"measurement": "Plant Emergence, Emerged", "setting": "Jun. 28, 2011, CTD 0.5 mg ai/seed", "value": 33, "unit": "%"}]}
